Data on 42 sequences can be found in publication PMC7819943, “Rice protein-binding microarrays: a tool to detect cis-acting elements near promoter regions in rice”.

The list shows a part of the results.

The test has as its target T1, OsSMF1 (Oryza sativa, UniProt Q6ZLB0 1-436).
T1 sequence: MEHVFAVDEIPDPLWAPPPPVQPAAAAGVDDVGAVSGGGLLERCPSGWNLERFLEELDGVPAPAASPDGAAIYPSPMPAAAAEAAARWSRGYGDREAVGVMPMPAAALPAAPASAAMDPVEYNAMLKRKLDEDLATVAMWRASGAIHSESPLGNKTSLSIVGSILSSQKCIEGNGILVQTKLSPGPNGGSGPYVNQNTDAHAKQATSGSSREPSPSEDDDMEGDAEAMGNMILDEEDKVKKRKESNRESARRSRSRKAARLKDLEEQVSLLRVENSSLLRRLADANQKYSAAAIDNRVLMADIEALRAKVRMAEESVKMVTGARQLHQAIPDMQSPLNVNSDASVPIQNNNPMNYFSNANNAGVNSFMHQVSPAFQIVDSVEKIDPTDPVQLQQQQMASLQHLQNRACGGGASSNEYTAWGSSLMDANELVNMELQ
Kind of test: protein-binding microarray (RPBM); PBS, 2% BSA, 51.3 ng/ul salmon testes DNA, 50 uM zinc acetate, 200 nM TF, 25 C, 1 h; high values mean tight binding. The conditions noted are these: protein: recombinant; tags: N-terminal polyhistidine and DsRed monomer fusion (pET32a); chain copies: 2; label: CyDye5-dUTP incorporated in the synthesized complementary strand; 3' TTTTT single-stranded linker to array surface; dsDNA, one strand shown. Put shortly:
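Transcription factors were made in E. coli BL21-CodonPlus as N-terminal fusions to a polyhistidine tag and DsRed, then purified on Ni–NTA. After primer extension with Cy5-dUTP and blocking with 2% BSA, a custom Agilent array was exposed for 1 h at 25 °C to 200 nM protein in PBS, 2% BSA, salmon testes DNA and 50 µM zinc acetate. Washed arrays were scanned on an Axon 4000B, and the binding signal is per-feature fluorescence intensity in arbitrary units.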
For the sequence “AAGCAAGCAATTGCTTTTGCTAAAGCCACGCAAGCAAACCCGGAGTCACCTAGTGCAG”, the binding signal is 9890 fluorescence intensity (a.u.).

For “CCTAATTAATCCATAATTATCAAAAGTTTACTGTAGCATCCGGAGTCACCTAGTGCAG”, the binding signal was 27800 fluorescence intensity (a.u.).

Turning to “TAGACAAGCGCACTTTCTGCTCTCTGACGCCAGATCAACTCGGAGTCACCTAGTGCAG”, the binding signal is 3600 fluorescence intensity (a.u.).

For “GTGGGGCCTAGGTGGGTCCCACGCTGACTCAGCTGCCACACGGAGTCACCTAGTGCAG”, the binding signal was 17900 fluorescence intensity (a.u.).

Consider “GTGATGACGTGCCCAGCTAACACGTGGGGTCCACGTGGGTCGGAGTCACCTAGTGCAG”, for which the binding signal is 20000 fluorescence intensity (a.u.).

Regarding “CCATGGCTGCCCTACTGCGTCATCCCTAGCTTGTCGAGGTCGGAGTCACCTAGTGCAG”, the binding signal is 4980 fluorescence intensity (a.u.).

Consider “CGTTTTGTAATTGTAAGGCTACGTTCAAAAGTGGAGGATGCGGAGTCACCTAGTGCAG”, for which the binding signal is 3320 fluorescence intensity (a.u.).

As to “TTCCTTCATTATATCCTAACTACCGGGCTCCTGAGTCAGCCGGAGTCACCTAGTGCAG”, the binding signal was 6970 fluorescence intensity (a.u.).

As to “ACTCCTGAGTCAACCAAGGAAAGAATGTTCGATGACCTGCCGGAGTCACCTAGTGCAG”, the binding signal was 3480 fluorescence intensity (a.u.).

With “AAGAAGAAGAAGAAATGAATGCCGAGCTGGCATTTACTTACGGAGTCACCTAGTGCAG”, the binding signal was 4720 fluorescence intensity (a.u.).

Consider “ACATATGCTGTGTTAATGAATATGGCTAGCCAACGTGTATCGGAGTCACCTAGTGCAG”, for which the binding signal is 4350 fluorescence intensity (a.u.).

Regarding “CACTCCAGTCAGTCCACGCCCACACCGCCGCCGCCCGCATCGGAGTCACCTAGTGCAG”, the binding signal is 3870 fluorescence intensity (a.u.).

On to “GGGCCCACCTTTCAGCCTCCGTCACGTCACCGGCTCCGCCCGGAGTCACCTAGTGCAG”, for which the binding signal was 5720 fluorescence intensity (a.u.).

Consider “ATATATTTAATCCAGTCCTTACATGACTCGGATTGGCGTGCGGAGTCACCTAGTGCAG”, for which the binding signal was 7230 fluorescence intensity (a.u.).

For “TCAGGGTGTTGGGCAGATCAGTTCACTTGGTTAGCGAGCGCGGAGTCACCTAGTGCAG”, the binding signal is 3820 fluorescence intensity (a.u.).

Consider “CGGCAGAGAGAGAGGGGTTCGAGAAATAAATTCCAGTGGCCGGAGTCACCTAGTGCAG”, for which the binding signal is 3150 fluorescence intensity (a.u.).

Turning to “TGTGCAATACCAAATCCTGACCGTTGATCTAGCATCATTCCGGAGTCACCTAGTGCAG”, the binding signal is 4100 fluorescence intensity (a.u.).

For “AGGTTGTGGTTCCGTCACGAGTAAACTGGCGATCAAACCGCGGAGTCACCTAGTGCAG”, the binding signal is 3460 fluorescence intensity (a.u.).

In the case of “GTATATATTAAGCCAATGGATGGTTGCCACTCCTTGGCACCGGAGTCACCTAGTGCAG”, the binding signal was 3280 fluorescence intensity (a.u.).

“CACACCATGCATCCGTCCGCATATACCCTGTCAACAATGTCGGAGTCACCTAGTGCAG”: the binding signal is 3970 fluorescence intensity (a.u.).

With “GAGTTAAGTAATGTGACGTCTGACAGCGGAGGCTCGTGTACGGAGTCACCTAGTGCAG”, the binding signal was 4540 fluorescence intensity (a.u.).

For “AGTTCGACTGCTAGTCACAGTCTATGAGGTTTGGGCGACCCGGAGTCACCTAGTGCAG”, the binding signal was 3520 fluorescence intensity (a.u.).

For “AGATTATTACAATGTATAAGCCAGATTACTATAATCCAATCGGAGTCACCTAGTGCAG”, the binding signal was 28600 fluorescence intensity (a.u.).

For the sequence “AAGCCAGGGGTCTCCTCGTCACGCTCGGCCTTGCGGTCTCCGGAGTCACCTAGTGCAG”, the binding signal is 5120 fluorescence intensity (a.u.).

As for “TACGCAGCACAAAGGGAAGGAGCTGGCATCGAACAGGCGCCGGAGTCACCTAGTGCAG”, the binding signal was 3470 fluorescence intensity (a.u.).

With “GCCAACCCGCTGGCCCGCCGCCACGCGCGCGTCCCCGTCGCGGAGTCACCTAGTGCAG”, the binding signal was 5080 fluorescence intensity (a.u.).

For “CCTCCCCACGCGCGCCGCCTTGCCCACCACCTCCAATCGTCGGAGTCACCTAGTGCAG”, the binding signal is 9460 fluorescence intensity (a.u.).

Regarding “CATCAATGACGTTACACAAACTCTGTCATTCCAACTGGAACGGAGTCACCTAGTGCAG”, the binding signal is 4460 fluorescence intensity (a.u.).

On to “TCCATCATCTTAAATCAGGGATTCTCTATATATTCAACTGCGGAGTCACCTAGTGCAG”, for which the binding signal is 15300 fluorescence intensity (a.u.).

For the sequence “GAACATTTGAGCTTTCTCACTCACTCATCACCATGGCCTTCGGAGTCACCTAGTGCAG”, the binding signal is 3310 fluorescence intensity (a.u.).

Consider “TATCTCGATGCAGTAATGATCGATGCACGGCGCGCGTTATCGGAGTCACCTAGTGCAG”, for which the binding signal was 3380 fluorescence intensity (a.u.).

As for “GCGCGAGCGTGGATCAAGGCGGGAGGCACATGAATCATAGCGGAGTCACCTAGTGCAG”, the binding signal was 3560 fluorescence intensity (a.u.).

“TTATTCCATCAGGAAACCGATCTCCCAGTGGGCCGCGCCCCGGAGTCACCTAGTGCAG”: the binding signal is 3320 fluorescence intensity (a.u.).

Turning to “CGATGCTTAAAGTAAACCAAGCAATCACCACGTAAATCGACGGAGTCACCTAGTGCAG”, the binding signal was 3360 fluorescence intensity (a.u.).

On to “TGCTTGGCACCATCATTAACACGCCATACTTAACGCTGATCGGAGTCACCTAGTGCAG”, for which the binding signal is 4790 fluorescence intensity (a.u.).

Consider “GCCGTCCTTGTAGCCGACGGGGCAAAACATGCAAATTGACCGGAGTCACCTAGTGCAG”, for which the binding signal was 3300 fluorescence intensity (a.u.).

On to “ATGGTGAAATTATAGGTGCATCGTTCTATCCACTATAGGGCGGAGTCACCTAGTGCAG”, for which the binding signal was 5810 fluorescence intensity (a.u.).

For the sequence “AAATCAACTCTTTATGTGTCGCCAATTCAGGCGGAACTTGCGGAGTCACCTAGTGCAG”, the binding signal is 3520 fluorescence intensity (a.u.).

On to “GGCCCTGCACCCACGTTGGATCCGTCCCTGCAGTCACCTTCGGAGTCACCTAGTGCAG”, for which the binding signal is 4190 fluorescence intensity (a.u.).

Consider “CGGCACCGTCGCGGCAGTCCGTTGCTGCCGCTGGCCGCCGCGGAGTCACCTAGTGCAG”, for which the binding signal was 3320 fluorescence intensity (a.u.).

In the case of “GATGCGTTCTTCCAGAGGTGTCATTCGCCATTCCGTGTGGCGGAGTCACCTAGTGCAG”, the binding signal was 4720 fluorescence intensity (a.u.).

Regarding “GGAGGAGGTGGCGGCGGAGGGGTTGGTGGTGGAGGTGGTCCGGAGTCACCTAGTGCAG”, the binding signal is 8220 fluorescence intensity (a.u.).
